From patent US20060084652A1, “Alkylidene-tetrahydronaphthalene derivatives, process for their production and their use as anti-inflammatory agents” (priority 2004, published 2006)
Some of these results come from one statement about several compounds together. At least one compound was matched to its structure with a doubt left.

Target: T1, progesterone receptor (PR) (Homo sapiens, UniProt P06401)
T1 construct: made in house
T1 sequence (P06401 1-933): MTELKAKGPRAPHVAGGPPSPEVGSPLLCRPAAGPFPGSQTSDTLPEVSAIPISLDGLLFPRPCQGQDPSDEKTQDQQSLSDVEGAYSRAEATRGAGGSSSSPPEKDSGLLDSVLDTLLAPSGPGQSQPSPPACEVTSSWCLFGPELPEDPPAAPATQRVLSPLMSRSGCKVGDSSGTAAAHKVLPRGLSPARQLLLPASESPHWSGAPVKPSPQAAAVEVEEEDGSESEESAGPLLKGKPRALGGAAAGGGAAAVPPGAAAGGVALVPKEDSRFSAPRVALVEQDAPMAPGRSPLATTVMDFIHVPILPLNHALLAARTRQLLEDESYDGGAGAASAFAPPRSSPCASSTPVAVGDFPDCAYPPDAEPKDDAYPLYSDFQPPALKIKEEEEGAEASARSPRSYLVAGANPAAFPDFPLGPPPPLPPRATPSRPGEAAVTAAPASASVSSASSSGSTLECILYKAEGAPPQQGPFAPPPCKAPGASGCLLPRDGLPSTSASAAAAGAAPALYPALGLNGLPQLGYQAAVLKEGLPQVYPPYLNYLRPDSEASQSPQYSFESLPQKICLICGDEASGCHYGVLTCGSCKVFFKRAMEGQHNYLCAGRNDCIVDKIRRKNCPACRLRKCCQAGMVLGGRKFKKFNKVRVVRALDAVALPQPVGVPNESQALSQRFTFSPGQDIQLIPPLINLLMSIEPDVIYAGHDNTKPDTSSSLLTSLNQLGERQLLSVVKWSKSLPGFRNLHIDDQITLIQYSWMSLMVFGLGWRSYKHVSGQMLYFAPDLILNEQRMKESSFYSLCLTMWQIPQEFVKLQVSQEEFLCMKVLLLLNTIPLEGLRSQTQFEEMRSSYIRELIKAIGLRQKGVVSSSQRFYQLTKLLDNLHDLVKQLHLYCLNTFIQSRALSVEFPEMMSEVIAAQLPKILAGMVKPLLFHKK
Test: Binding to the progesterone receptor, recombinantly produced receptor

Compound: C/C=C1/C[C@@](O)(C(F)(F)F)[C@H](Nc2cccc3nc(C)ccc23)c2ccc(F)cc21 (relative stereo) [Example 1, (cis, Z)-4-Ethylidene-6-fluoro-1-[(2-methylquinolin-5-yl)amino]-2-(trifluoromethyl)-1,2,3,4-tetrahydronaphthalen-2-ol]
- IC50: > 1000 nM
